# Laboratory results from PubChem BioAssay (Tox21).
# Chains of the proteins cited; added tags and fusions are not shown. Lines headed by an entry give the natural chain unless they say otherwise; changes in a name come on top.
# UniProt P11473: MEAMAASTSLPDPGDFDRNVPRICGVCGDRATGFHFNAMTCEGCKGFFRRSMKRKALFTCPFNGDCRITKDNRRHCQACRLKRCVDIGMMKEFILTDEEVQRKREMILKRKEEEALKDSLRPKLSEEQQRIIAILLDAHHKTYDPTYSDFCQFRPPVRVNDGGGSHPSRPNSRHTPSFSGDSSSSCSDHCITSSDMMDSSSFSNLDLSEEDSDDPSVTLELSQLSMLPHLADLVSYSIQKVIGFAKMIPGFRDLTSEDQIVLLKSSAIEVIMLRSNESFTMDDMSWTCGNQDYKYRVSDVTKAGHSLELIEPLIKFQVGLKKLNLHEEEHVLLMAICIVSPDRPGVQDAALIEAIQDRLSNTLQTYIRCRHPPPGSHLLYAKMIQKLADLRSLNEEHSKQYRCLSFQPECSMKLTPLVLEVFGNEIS
# UniProt Q03181: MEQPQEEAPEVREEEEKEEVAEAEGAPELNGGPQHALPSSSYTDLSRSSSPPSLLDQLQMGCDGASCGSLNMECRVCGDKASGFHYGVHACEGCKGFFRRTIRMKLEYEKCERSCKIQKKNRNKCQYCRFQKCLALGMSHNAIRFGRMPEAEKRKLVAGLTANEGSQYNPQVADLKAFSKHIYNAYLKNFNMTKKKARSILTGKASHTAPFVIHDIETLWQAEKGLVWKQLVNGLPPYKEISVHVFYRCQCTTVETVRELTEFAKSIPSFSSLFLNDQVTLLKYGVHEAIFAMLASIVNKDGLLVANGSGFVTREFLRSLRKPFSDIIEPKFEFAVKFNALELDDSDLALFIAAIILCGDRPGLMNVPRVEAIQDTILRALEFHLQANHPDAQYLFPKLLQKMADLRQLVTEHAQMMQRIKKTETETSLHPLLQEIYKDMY
# “And” between values parts separate entries of the source, which are not always exact repeats. Identical values can stand only once. This list was built around the results that the source calls inconclusive (neither active nor inactive); the mix of calls is not that of the screen. For some of these results: A potency beside an inconclusive call is a rough fit, not a confirmed value. The source made the active and inactive calls. Unless noted, calls follow the shape of the dose curve; as a rule, active = well fitted curve in the direction sought with a large enough effect in the repeat runs; inconclusive = weak or mixed curves; inactive = no such curve, though single readings can be large; an effect the other way counts as inactive or inconclusive.
# Columns and labels:
# [1] = biological target: Vitamin D3 receptor (Homo sapiens) (UniProt P11473); assay: qHTS assay to identify small molecule antagonists of the vitamin D receptor (VDR) signaling pathway (AID 743223; active = well fitted inhibition curve with a large enough effect in the signal ratio in the repeat runs, not every such curve was filed as active; inconclusive = weak or mixed curves, or effect the other way; inactive = no such curve, though single readings can be large or run the other way; the % refers to the signal ratio; also: % is scaled to controls: 0 for no effect and ±100 for the full control effect); conditions: VDR-UAS-bla HEK293T, beta-lactamase FRET ratio, 16 h
# In short: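 Beta-lactamase reporter read-out: FRET substrate fluorescence after 2 h at room temperature, following 16 h exposure of VDR-bla cells to test compound plus 3 nM (final) 1alpha,25-dihydroxyvitamin D3 agonist at 37C.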
# [2] = biological target: Nuclear receptor ROR-gamma (Homo sapiens) (UniProt P51449); assay: qHTS assay to identify small molecule antagonists of the retinoid-related orphan receptor gamma (ROR-gamma) signaling pathway (AID 1159521; also: nearly all actives have a fitted effect of over 50% in size; also: potency is read from the fitted curve at half-maximal effect)
# In short: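 Luminescence readout (ONE-Glo, 30 min RT) after 16 h doxycycline induction; loss of signal scored as antagonism. CHO cells with TET-inducible RORγ and RORE-LUC reporter; compounds added 2 h before 1 uM final doxycycline.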
# [3] = qHTS assay to identify small molecule agonists of the AP-1 signaling pathway (AID 1159526; calls by dose curve; also: % is scaled to controls: 0 for no effect and ±100 for the full control effect); conditions: ME-180 (cervical carcinoma) AP-1-bla reporter, beta-lactamase FRET ratio, 5 h; activation: at 76.8 µM (top of the series) unless noted
# [4] = qHTS assay for small molecule agonists of the antioxidant response element (ARE) signaling pathway (AID 743202; active = well fitted activation curve with a large enough effect in the signal ratio in the repeat runs, not every such curve was filed as active; inconclusive = weak or mixed curves, or effect the other way; inactive = no such curve, though single readings can be large or run the other way; the % refers to the signal ratio; also: potency is read from the fitted curve at half-maximal effect; as to activation: % is scaled to controls: 0 for no effect and ±100 for the full control effect); conditions: HepG2 ARE-bla reporter, beta-lactamase FRET, 16 h
# In short: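 Agonist mode reporter screen: HepG2 cells with ARE-controlled beta-lactamase are incubated with test compounds for 16 h at 37 C, and beta-lactamase activity is measured as fluorescence of cleaved B/G FRET substrate.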
# [5] = qHTS assay for small molecule agonists of the antioxidant response element (ARE) signaling pathway - cell viability counter screen (AID 743203; calls by dose curve; also: nearly all actives have a fitted effect of over 55% in size; also: potency is read from the fitted curve at half-maximal effect); conditions: ARE-bla HepG2 viability, CellTiter-Glo luminescence, 16 h; viability change, negative = cytotoxic: at 73.3 µM (top of the series)
# In short: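 Compounds in DMSO were pinned onto ARE-bla HepG2 cells plated 5 hrs earlier at 2,000 cells/well. Sixteen hours later at 37C/5% CO2, CellTiter-Glo was added and luminescence measured after 30 min at room temperature.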
# [6] = qHTS assay to identify small molecule agonists of the peroxisome proliferator-activated receptor delta (PPARd) signaling pathway - cell viability counter screen (AID 743211); conditions: PPARd-bla HEK293H viability, CellTiter-Glo luminescence, 17 h; activity change, negative = cytotoxicity: at 62.6 µM (top of the series); also: nearly all actives have a fitted effect of over 55% in size; also: potency is read from the fitted curve at half-maximal effect; as to activity change, negative = cytotoxicity: % is scaled to controls: 0 for no effect and ±100 for the full control effect
# In short: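 Read-out: CellTiter-Glo luminescence, 30 min RT, measured in the same wells as the beta-lactamase reporter. Cells: GeneBLAzer PPAR delta UAS-bla HEK293H, 3000 cells/well, compound exposure 17 h at 37C.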
# [7] = qHTS assay to identify small molecule antagonists of the peroxisome proliferator-activated receptor delta (PPARd) signaling pathway - cell viability counter screen (AID 743213); conditions: PPARd-bla HEK293H viability, CellTiter-Glo luminescence, 17 h; viability change, negative = cytotoxic: at 62 µM (top of the series) unless noted; also: potency is read from the fitted curve at half-maximal effect; nearly all actives have a fitted effect of over 50% in size
# In short: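 Agonist-stimulated (L165041, 300 nM final) HEK293H PPARd UAS-bla cells are exposed to compounds for 17 h at 37 C, and ATP-based luminescence (CellTiter-Glo) from the same wells reports cytotoxicity.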
# [8] = qHTS assay to identify small molecule agonists of the farnesoid-X-receptor (FXR) signaling pathway - cell viability counter screen (AID 743218); conditions: FXR-bla HEK293T viability, CellTiter-Glo luminescence, 16 h; viability change, negative = cytotoxic: at 62.6 µM (top of the series) unless noted; also: potency is read from the fitted curve at half-maximal effect; nearly all actives have a fitted effect of over 45% in size
# In short: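 After 16 h at 37 C with test compounds, FXR-bla HEK 293T cells were given LiveBLAzer B/G substrate for 2 h at RT and then CellTiter-Glo; luminescence was taken after 30 min.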
# [9] = qHTS assay to identify small molecule antagonists of the farnesoid-X-receptor (FXR) signaling pathway - cell viability counter screen (AID 743221; active = well fitted cell-killing curve with a large enough effect in the repeat runs, not every such curve was filed as active; inconclusive = weak or mixed curves, or effect the other way; inactive = no such curve, though single readings can be large or run the other way; also: potency is read from the fitted curve at half-maximal effect; nearly all actives have a fitted effect of over 50% in size); conditions: FXR-bla HEK293T viability, CellTiter-Glo luminescence, 16 h; activity change, negative = cytotoxicity: at 62.6 µM (top of the series) unless noted
# In short: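 HEK 293T FXR-bla cells, 5 h pre-incubation; compound + CDCA 50 uM final, 16 h, 37 C; beta-lactamase FRET read first, then CellTiter-Glo luminescence, 30 min RT.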
# [10] = qHTS assay to identify small molecule agonists of the vitamin D receptor (VDR) signaling pathway - cell viability counter screen (AID 743224); conditions: VDR-bla HEK293T viability, CellTiter-Glo luminescence, 16 h; activity change, negative = cytotoxicity: at 62.6 µM (top of the series); also: potency is read from the fitted curve at half-maximal effect; nearly all actives have a fitted effect of over 50% in size
# In short: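 Here cell health was gauged by luminescent ATP detection (CellTiter-Glo, 30 min RT) in VDR-bla cells that had been incubated with test compounds for 16 h at 37C and 5% CO2.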
# [11] = qHTS assay to identify small molecule antagonists of the vitamin D receptor (VDR) signaling pathway - cell viability counter screen (AID 743225); conditions: VDR-bla HEK293T viability, CellTiter-Glo luminescence, 16 h; viability change, negative = cytotoxic: at 61 µM (top of the series) unless noted; also: nearly all actives have a fitted effect of over 50% in size; also: potency is read from the fitted curve at half-maximal effect
# In short: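 Viability counter screen run in the same wells as the beta-lactamase reporter assay: HEK 293T VDR-UAS-bla cells, 16 h compound exposure at 37C with 3 nM (final) 1-alpha,25-dihydroxyvitamin D3. CellTiter-Glo luminescence, 30 min, room temperature.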
# [12] = biological target: Peroxisome proliferator-activated receptor delta (Homo sapiens) (UniProt Q03181); assay: qHTS assay to identify small molecule antagonists of the peroxisome proliferator-activated receptor delta (PPARd) signaling pathway (AID 743215; active = well fitted inhibition curve with a large enough effect in the signal ratio in the repeat runs, not every such curve was filed as active; inconclusive = weak or mixed curves, or effect the other way; inactive = no such curve, though single readings can be large or run the other way; the % refers to the signal ratio; also: potency is read from the fitted curve at half-maximal effect); conditions: HEK293H PPARd-UAS-bla, beta-lactamase FRET ratio, antagonist, 17 h; ratio activity, negative = inhibition: at 62 µM (top of the series) unless noted
# In short: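 With L165041 present at 300 nM final, compounds were incubated 17 h at 37 C on PPARd UAS-bla HEK293H cells. A FRET-based beta-lactamase substrate was then applied for 2 h at room temperature and fluorescence intensity recorded.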
# [13] = qHTS assay for small molecule activators of the heat shock response signaling pathway (AID 743210; active = well fitted activation curve with a large enough effect in the signal ratio in the repeat runs, with a control signal flat, not every such curve was filed as active; inconclusive = weak or mixed curves; the % refers to the signal ratio; also: potency is read from the fitted curve at half-maximal effect); conditions: HeLa HSE-bla reporter, beta-lactamase ratio, 5 h; activation: at 62.6 µM (top of the series) unless noted
# In short: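 Quantitative high-throughput format using an engineered HeLa line in which heat shock response elements drive beta-lactamase; after 5 h with compound, cells received a B/G FRET substrate and fluorescence was read.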
# [14] = activity change, negative = inhibition: at 61 µM (top of the series) unless noted
# [15] = activation: at 73.3 µM (top of the series) unless noted
smiles,measurement,setting,value
O=S1(=O)CC=CC1,"activity change, negative = inhibition",[1]; [14],inconclusive: 14.4%
same,"activity change, negative = inhibition",[1]; at 61 µM (top of the series),inactive: 4.48%
same,Potency,[2],"inconclusive: 0.243 µM [inhibitor, single point]"
same,Potency,[3],inactive
Cc1nc2ccccc2n1Cc1ccc(Cl)cc1,Potency,[4]; [15],"inconclusive: 1.33 µM [rising, full curve]"
same,Potency,[5],"inconclusive: 33.5 µM [cytotoxic, single point]"
same,Potency,[6],inactive
same,Potency,[7],"inconclusive: 33.5 µM [cytotoxic, partial curve, poor fit]"
same,Potency,[8],"inconclusive: 47.3 nM [cytotoxic, full curve, poor fit]"
same,Potency,[9],"inconclusive: 266 nM [falling, single point]"
same,Potency,[10],"inconclusive: 5.96 µM [cytotoxic, full curve]"
same,Potency,[11],"inconclusive: 2130 nM [cytotoxic, partial curve, poor fit]"
same,Potency,[2],active: 2.66 µM
Cc1ccc(N)c([N+](=O)[O-])c1,activation,[4]; [15],inconclusive: -0.296%
same,activation,[4]; at 73.3 µM (top of the series),inactive: -12.4%
same,Potency,[7],"inconclusive: 12.3 µM [cytotoxic, partial curve, poor fit]"
same,Potency,[12],"inconclusive: 17.4 µM [fluorescent, full curve]"
same,"activity change, negative = inhibition",[1]; [14],inconclusive: 19.8%
same,"activity change, negative = inhibition",[1]; at 61 µM (top of the series),inactive: 0.143%
same,Potency,[2],"inactive and inconclusive: 2.73 µM [inhibitor, single point]"
CC(=O)/C=C/C1C(C)=CCC(C)C1(C)C (stereo not given),Potency,[4]; [15],"inconclusive: 61.1 µM [rising, partial curve, poor fit]"
same,activation,[13],inconclusive: 7.2%
same,Potency,[2],inactive
CC1=C(O)C(=O)OC1C (stereo not given),Potency,[11],"inconclusive: 1.2 nM [rising, full curve, poor fit]"
same,Potency,[2],"inconclusive: 0.0217 µM [inhibitor, full curve, poor fit]"
same,Potency,[3],inactive
CNC(=O)N(c1ccccc1)c1ccccc1,activation,[4]; [15],inconclusive: 8.28% [at 94.8 µM]
same,Potency,[2],"inconclusive: 34.5 µM [inhibitor, partial curve, poor fit]"
CCNc1cccc(C)c1,activation,[4]; [15],inconclusive: -15.5%
same,Potency,[5],inactive
same,Potency,[13],inactive
same,Potency,[6],"inconclusive: 24.5 µM [cytotoxic, single point]"
same,Potency,[11],"inconclusive: 977 nM [cytotoxic, single point]"
same,"viability change, negative = cytotoxic",[11],inconclusive: -2.33% [cytotoxic]
same,Potency,[2],inactive
COc1cccc(N(C)C(=S)Oc2ccc3c(c2)CCCC3)n1,Potency,[4]; [15],inconclusive: 33.5 µM
same,Potency,[13],"inconclusive: 3.8 nM [falling, full curve, poor fit]"
same,Potency,[6],"inconclusive: 29.8 µM [cytotoxic, partial curve]"
same,Potency,[1]; [14],inactive
same,Potency,[2],"inconclusive: 33.5 µM [inhibitor, single point]"
